Experimental data published in publication PMC5240339.
Results are given in words; binding and its absence hold for the method and conditions named. Binding seen in cells or lysates may run through a third protein. Some binding calls cover weakened binding; strength is not graded here.

The chains behind the UniProt entries cited, without tags or fusion partners. Where a name states a change or a piece, a line headed by the entry shows the natural chain unless it says otherwise.
UniProt P35637: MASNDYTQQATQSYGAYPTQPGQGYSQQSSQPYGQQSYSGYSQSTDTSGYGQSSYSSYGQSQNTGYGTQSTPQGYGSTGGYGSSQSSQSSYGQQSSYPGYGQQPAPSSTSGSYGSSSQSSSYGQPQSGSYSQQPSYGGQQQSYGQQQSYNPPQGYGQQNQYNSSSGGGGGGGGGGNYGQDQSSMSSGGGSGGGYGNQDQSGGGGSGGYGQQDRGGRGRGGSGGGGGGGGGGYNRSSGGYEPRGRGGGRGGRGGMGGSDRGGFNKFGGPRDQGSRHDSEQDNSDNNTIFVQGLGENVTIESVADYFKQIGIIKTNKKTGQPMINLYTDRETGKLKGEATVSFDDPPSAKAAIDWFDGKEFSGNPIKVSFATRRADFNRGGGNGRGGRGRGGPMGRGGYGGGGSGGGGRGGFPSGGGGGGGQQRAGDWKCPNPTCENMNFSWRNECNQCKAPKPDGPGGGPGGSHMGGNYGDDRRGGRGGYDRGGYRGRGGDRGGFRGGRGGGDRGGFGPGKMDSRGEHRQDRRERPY
UniProt Q9JIF0: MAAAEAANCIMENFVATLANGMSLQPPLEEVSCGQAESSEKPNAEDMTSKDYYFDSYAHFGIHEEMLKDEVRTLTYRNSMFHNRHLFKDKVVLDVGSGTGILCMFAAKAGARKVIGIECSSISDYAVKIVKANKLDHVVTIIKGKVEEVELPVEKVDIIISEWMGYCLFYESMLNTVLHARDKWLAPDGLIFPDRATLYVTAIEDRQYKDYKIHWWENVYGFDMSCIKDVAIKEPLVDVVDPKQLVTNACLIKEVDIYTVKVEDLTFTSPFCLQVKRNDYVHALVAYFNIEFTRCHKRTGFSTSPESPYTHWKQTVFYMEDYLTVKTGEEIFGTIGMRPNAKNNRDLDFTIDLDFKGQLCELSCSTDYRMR

Assays:
AAV-FLAG-FUS-WT = AAV-FLAG-FUS-WT (UniProt P35637); assay: co-IP; lysates of cultured mouse cortical neurons infected with AAV-FLAG-FUS for 4-6 days; anti-FLAG IP, western blot with anti-PRMT1
AAV-FLAG-FUS-R521C = AAV-FLAG-FUS-R521C (UniProt P35637); assay: as above

binding (AAV-FLAG-FUS-WT): binds
binding (AAV-FLAG-FUS-R521C): binds
Substance: endogenous PRMT1 of cultured mouse cortical neurons (from UniProt Q9JIF0 1-371)
